Laboratory results: paper doi:10.1101/2020.09.30.320457
No constants are given. Whether binding was seen depends on the method and setting. Binding can be weak; no strength is given.

Molecular target: HSV-1 procapsid scaffold (scaffold protein pUL26.5) (herpes simplex virus type 1 (HSV-1))
Assay: cryo-EM structure

B1: HSV-1 portal protein pUL6 (dodecameric portal ring) (protein, UniProt P10190 8-676)
chain: APTTRARGDTEALCSPEDGWVKVHPSPGTMLFREILHGQLGYTEGQGVYNVVRSSEATTRQLQAAIFHALLNATTYRDLEADWLGHVAARGLQPQRLVRRYRNAREADIAGVAERVFDTWRNTLRTTLLDFAHGLVACFAPGGPSGPSSFPKYIDWLTCLGLVPILRKRQEGGVTQGLRAFLKQHPLTRQLATVAEAAERAGPGFFELALAFDSTRVADYDRVYIYYNHRRGDWLVRDPISGQRGECLVLWPPLWTGDRLVFDSPVQRLFPEIVACHSLREHAHVCRLRNTASVKVLLGRKSDSERGVAGAARVVNKVLGEDDETKAGSAASRLVRLIINMKGMRHVGDINDTVRSYLDEAGGHLIDAPAVDGTLPGFGKGGNSRGSAGQDQGGRAPQLRQAFRTAVVNNINGVLEGYINNLFGTIERLRETNAGLATQLQERDRELRRATAGALERQQRAADLAAESVTGGCGSRPAGADLLRADYDIIDVSKSMDDDTYVANSFQHPYIPSYAQDLERLSRLWEHELVRCFKILCHRNNQGQETSISYSSGAIAAFVAPYFESVLRAPRVGAPITGSDVILGEEELWDAVFKKTRLQTYLTDIAALFVADVQHAALPPPPSPVGADFRPGASPRGRSRSRSPGRTARGAPDQGGGIGHRDGRRDGRR
binding: binds
